Consider 4 molecules from PMC11328874 (2024).

These are yes or no findings as the source states them, for the method shown. Binding seen in cells or lysates may run through a third protein. Some results given as binding are weak or reduced against the parent protein; the word gives no strength. Sequences can lack the tags named with a protein.

Holding throughout (assay): co-IP; HEK cells cotransfected with FLAG-Eya3 or FLAG-Eya2 (wild type or deletions) and HA-B55α (wild type or mutants); FLAG gel in lysate at 4 °C overnight, eluted with FLAG peptide; Western blot with α-FLAG and α-HA
Experiment [1] deals with T1, FLAG-Eya3 (human), wild type (human) (UniProt Q99504).
T1 sequence: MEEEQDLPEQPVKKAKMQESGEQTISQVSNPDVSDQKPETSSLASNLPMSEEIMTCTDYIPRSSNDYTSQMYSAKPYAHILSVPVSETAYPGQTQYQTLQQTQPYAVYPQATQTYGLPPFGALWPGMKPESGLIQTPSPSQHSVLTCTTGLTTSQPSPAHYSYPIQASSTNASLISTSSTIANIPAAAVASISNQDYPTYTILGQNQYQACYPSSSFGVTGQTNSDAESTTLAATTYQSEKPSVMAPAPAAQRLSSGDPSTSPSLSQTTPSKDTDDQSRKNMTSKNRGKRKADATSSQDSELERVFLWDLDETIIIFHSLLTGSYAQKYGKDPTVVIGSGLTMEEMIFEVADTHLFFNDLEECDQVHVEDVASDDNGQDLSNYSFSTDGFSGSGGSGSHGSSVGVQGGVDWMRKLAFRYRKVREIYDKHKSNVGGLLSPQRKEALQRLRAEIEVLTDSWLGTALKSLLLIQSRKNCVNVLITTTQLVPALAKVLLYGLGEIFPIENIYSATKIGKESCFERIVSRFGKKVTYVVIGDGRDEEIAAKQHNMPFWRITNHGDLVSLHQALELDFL

In experiment [2] the target is T2, FLAG-Eya2 Δ32 to 99 (human) (UniProt O00167).
T2 sequence: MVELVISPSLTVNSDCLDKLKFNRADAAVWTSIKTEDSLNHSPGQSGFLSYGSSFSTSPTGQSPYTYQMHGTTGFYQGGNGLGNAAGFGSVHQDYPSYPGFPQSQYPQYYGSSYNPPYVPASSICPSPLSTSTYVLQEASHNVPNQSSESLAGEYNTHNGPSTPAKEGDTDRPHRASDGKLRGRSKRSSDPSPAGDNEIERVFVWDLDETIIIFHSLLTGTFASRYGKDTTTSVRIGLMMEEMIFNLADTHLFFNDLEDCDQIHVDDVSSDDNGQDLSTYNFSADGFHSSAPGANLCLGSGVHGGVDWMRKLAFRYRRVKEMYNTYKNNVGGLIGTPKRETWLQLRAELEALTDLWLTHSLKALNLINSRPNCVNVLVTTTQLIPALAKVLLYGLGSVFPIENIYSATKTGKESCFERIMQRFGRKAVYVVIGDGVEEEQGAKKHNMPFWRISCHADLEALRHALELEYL

Experiment [3] concerns the target T3, FLAG-Eya2 Δ32 to 54 (human) (UniProt O00167).
T3 sequence: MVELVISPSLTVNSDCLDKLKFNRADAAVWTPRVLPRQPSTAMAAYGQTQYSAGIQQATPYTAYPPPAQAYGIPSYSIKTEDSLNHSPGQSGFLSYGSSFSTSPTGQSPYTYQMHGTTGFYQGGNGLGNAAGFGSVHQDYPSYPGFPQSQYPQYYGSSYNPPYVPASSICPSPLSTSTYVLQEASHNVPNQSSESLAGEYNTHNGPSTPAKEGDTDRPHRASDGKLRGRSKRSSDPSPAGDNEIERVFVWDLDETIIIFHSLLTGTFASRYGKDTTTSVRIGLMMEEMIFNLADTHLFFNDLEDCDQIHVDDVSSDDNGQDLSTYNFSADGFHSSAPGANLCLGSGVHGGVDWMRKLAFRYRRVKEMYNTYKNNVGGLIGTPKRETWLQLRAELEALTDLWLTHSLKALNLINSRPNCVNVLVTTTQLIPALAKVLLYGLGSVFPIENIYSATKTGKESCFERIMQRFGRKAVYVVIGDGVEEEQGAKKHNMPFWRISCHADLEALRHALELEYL

Experiment [4] concerns the target T4, FLAG-Eya2 (human), wild type (human) (UniProt O00167).
T4 sequence: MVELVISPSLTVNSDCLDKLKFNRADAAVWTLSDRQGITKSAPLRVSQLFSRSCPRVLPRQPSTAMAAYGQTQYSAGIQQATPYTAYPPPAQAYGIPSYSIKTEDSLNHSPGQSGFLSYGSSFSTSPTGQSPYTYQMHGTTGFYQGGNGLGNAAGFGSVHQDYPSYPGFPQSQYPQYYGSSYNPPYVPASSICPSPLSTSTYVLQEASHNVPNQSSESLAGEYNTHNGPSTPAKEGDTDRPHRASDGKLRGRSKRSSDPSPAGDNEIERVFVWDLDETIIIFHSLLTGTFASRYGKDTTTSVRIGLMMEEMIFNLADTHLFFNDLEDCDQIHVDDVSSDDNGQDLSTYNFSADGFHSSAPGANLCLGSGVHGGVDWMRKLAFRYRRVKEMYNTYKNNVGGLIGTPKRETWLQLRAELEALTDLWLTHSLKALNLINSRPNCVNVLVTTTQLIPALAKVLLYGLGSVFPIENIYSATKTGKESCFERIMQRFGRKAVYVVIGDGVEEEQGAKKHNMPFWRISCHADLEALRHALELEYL

B1: HA-B55α K48E (protein, UniProt P63151 1-447)
chain: MAGAGGGNDIQWCFSQVKGAVDDDVAEADIISTVEFNHSGELLATGDEGGRVVIFQQEQENKIQSHSRGEYNVYSTFQSHEPEFDYLKSLEIEEKINKIRWLPQKNAAQFLLSTNDKTIKLWKISERDKRPEGYNLKEEDGRYRDPTTVTTLRVPVFRPMDLMVEASPRRIFANAHTYHINSISINSDYETYLSADDLRINLWHLEITDRSFNIVDIKPANMEELTEVITAAEFHPNSCNTFVYSSSKGTIRLCDMRASALCDRHSKLFEEPEDPSNRSFFSEIISSISDVKFSHSGRYMMTRDYLSVKIWDLNMENRPVETYQVHEYLRSKLCSLYENDCIFDKFECCWNGSDSVVMTGSYNNFFRMFDRNTKRDITLEASRENNKPRTVLKPRKVCASGKRKKDEISVDSLDFNKKILHTAWHPKENIIAVATTNNLYIFQDKVN
With B1, the binding result in experiment [1] is “binds”.

B2: HA-B55α E27R (protein, UniProt P63151 1-447)
chain: MAGAGGGNDIQWCFSQVKGAVDDDVARADIISTVEFNHSGELLATGDKGGRVVIFQQEQENKIQSHSRGEYNVYSTFQSHEPEFDYLKSLEIEEKINKIRWLPQKNAAQFLLSTNDKTIKLWKISERDKRPEGYNLKEEDGRYRDPTTVTTLRVPVFRPMDLMVEASPRRIFANAHTYHINSISINSDYETYLSADDLRINLWHLEITDRSFNIVDIKPANMEELTEVITAAEFHPNSCNTFVYSSSKGTIRLCDMRASALCDRHSKLFEEPEDPSNRSFFSEIISSISDVKFSHSGRYMMTRDYLSVKIWDLNMENRPVETYQVHEYLRSKLCSLYENDCIFDKFECCWNGSDSVVMTGSYNNFFRMFDRNTKRDITLEASRENNKPRTVLKPRKVCASGKRKKDEISVDSLDFNKKILHTAWHPKENIIAVATTNNLYIFQDKVN
Regarding B2, in experiment [1], the binding entry is listed as “binds”.

B3: HA-tagged B55α (HA-B55α), wild type (protein, UniProt P63151 1-447)
chain: MAGAGGGNDIQWCFSQVKGAVDDDVAEADIISTVEFNHSGELLATGDKGGRVVIFQQEQENKIQSHSRGEYNVYSTFQSHEPEFDYLKSLEIEEKINKIRWLPQKNAAQFLLSTNDKTIKLWKISERDKRPEGYNLKEEDGRYRDPTTVTTLRVPVFRPMDLMVEASPRRIFANAHTYHINSISINSDYETYLSADDLRINLWHLEITDRSFNIVDIKPANMEELTEVITAAEFHPNSCNTFVYSSSKGTIRLCDMRASALCDRHSKLFEEPEDPSNRSFFSEIISSISDVKFSHSGRYMMTRDYLSVKIWDLNMENRPVETYQVHEYLRSKLCSLYENDCIFDKFECCWNGSDSVVMTGSYNNFFRMFDRNTKRDITLEASRENNKPRTVLKPRKVCASGKRKKDEISVDSLDFNKKILHTAWHPKENIIAVATTNNLYIFQDKVN
For B3, the binding result in experiment [2], in experiment [3], in experiment [1] and in experiment [4] was “binds” throughout.

B4: HA-B55α D197K (protein, UniProt P63151 1-447)
chain: MAGAGGGNDIQWCFSQVKGAVDDDVAEADIISTVEFNHSGELLATGDKGGRVVIFQQEQENKIQSHSRGEYNVYSTFQSHEPEFDYLKSLEIEEKINKIRWLPQKNAAQFLLSTNDKTIKLWKISERDKRPEGYNLKEEDGRYRDPTTVTTLRVPVFRPMDLMVEASPRRIFANAHTYHINSISINSDYETYLSADKLRINLWHLEITDRSFNIVDIKPANMEELTEVITAAEFHPNSCNTFVYSSSKGTIRLCDMRASALCDRHSKLFEEPEDPSNRSFFSEIISSISDVKFSHSGRYMMTRDYLSVKIWDLNMENRPVETYQVHEYLRSKLCSLYENDCIFDKFECCWNGSDSVVMTGSYNNFFRMFDRNTKRDITLEASRENNKPRTVLKPRKVCASGKRKKDEISVDSLDFNKKILHTAWHPKENIIAVATTNNLYIFQDKVN
With B4, the binding entry in experiment [1] is recorded as “binds”.
